The values below come from article PMC8924001.

Amino acid sequences for entries named in this document (tags omitted).
UniProt P11940, whole entry: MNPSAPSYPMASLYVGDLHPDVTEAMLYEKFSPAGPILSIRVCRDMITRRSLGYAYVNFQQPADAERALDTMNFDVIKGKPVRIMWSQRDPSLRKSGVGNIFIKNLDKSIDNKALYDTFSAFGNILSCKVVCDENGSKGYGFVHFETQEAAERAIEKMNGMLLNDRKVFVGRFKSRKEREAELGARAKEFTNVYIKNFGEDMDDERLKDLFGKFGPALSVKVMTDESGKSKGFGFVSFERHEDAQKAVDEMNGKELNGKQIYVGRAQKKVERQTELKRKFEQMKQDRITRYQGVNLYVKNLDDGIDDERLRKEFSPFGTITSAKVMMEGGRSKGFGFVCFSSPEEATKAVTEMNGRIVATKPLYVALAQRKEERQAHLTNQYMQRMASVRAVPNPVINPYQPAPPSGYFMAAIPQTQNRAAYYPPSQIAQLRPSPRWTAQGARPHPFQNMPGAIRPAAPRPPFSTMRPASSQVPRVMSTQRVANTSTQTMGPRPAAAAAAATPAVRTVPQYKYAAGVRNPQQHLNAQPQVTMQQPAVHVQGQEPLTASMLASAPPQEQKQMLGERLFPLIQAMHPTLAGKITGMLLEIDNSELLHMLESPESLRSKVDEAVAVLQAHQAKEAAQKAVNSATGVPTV

For at least one entry, the source does not settle the construct or the ends of the probe. At least one verdict rests on a figure or table, not on a statement of the authors.

This data set has as its target PABPC1 full-length (human) (UniProt P11940). Nature of the data set: EMSA. The following applies: 15 nM RNA, 0.5 uM PABPC1, binding not altered by 1 uM cold mTOG-Psi; EMSA: 20 mM Tris pH 7.5, 2 mM MgCl2, 0.1% BSA, 3% Ficoll 400, 0.01% NP-40, room temperature, 30 min; ~250 nM RNA; 8% TBE gel; recombinant protein; residues 1-636; protein details: N-terminal 6xHis-TEV (cleaved during purification); label: radiolabel.

Turning to AAAAAAAAAAAAAAAAAA [poly(A) 18 nt], the binding result is “binds”.
